Values quoted from earlier work in US11229224B2, “Phytochemical compositions used as disinfectants and food preservatives” (priority 2012, dated 2022).
Some results were stated once for a whole list of compounds, not compound by compound. At least one compound was matched to its structure with a doubt left. Some ranges recur; such a range may be that of the whole group of compounds.

What was measured:
[1] = tested on: content in alfalfa sprouts; conditions: washing and disinfecting; 200 mg/L or 100 mg/L; cited from earlier work
[2] = tested on: S. typhi; conditions: alfalfa sprouts; 200 mg/L or 100 mg/L; cited from earlier work
[3] = tested on: V. cholerae O1; conditions: alfalfa sprouts; 200 mg/L or 100 mg/L; cited from earlier work

[O][Cl+][O-] [ClO2, chlorine dioxide]
reduction of the content in alfalfa sprouts [1]: 1-2 log10 | decrease of the previously inoculated S. typhi [2]: ≤ 1.5 log10 CFU/g | decrease of the previously inoculated V. cholerae O1 [3]: ≤ 1.5 log10 CFU/g

OCl [Hypochlorite, sodium hypochlorite]
reduction of the content in alfalfa sprouts [1]: 1-2 log10 | decrease of the previously inoculated S. typhi [2]: ≤ 1.5 log10 CFU/g | decrease of the previously inoculated V. cholerae O1 [3]: ≤ 1.5 log10 CFU/g

II [iodine]
reduction of the content in alfalfa sprouts [1]: 1-2 log10 | decrease of the previously inoculated S. typhi [2]: ≤ 1.5 log10 CFU/g | decrease of the previously inoculated V. cholerae O1 [3]: ≤ 1.5 log10 CFU/g
